Reference: paper PMC7072953
No constants are given. Whether binding was seen depends on the method and setting. In cells and extracts the contact can be indirect. Some entries that bind do so weakly or less than the wild type.

Protein sequences, listed by entry. Tags and fused reporters are not part of them.
UniProt Q9QUI0: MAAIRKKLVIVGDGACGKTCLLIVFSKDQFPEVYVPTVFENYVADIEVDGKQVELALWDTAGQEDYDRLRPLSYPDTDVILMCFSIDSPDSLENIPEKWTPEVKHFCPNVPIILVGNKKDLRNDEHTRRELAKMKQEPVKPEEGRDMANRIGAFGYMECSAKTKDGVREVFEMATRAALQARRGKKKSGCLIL

Target: RhoA (mouse (endogenous in ZW13-2 cells and C57BL/6J brain)) (UniProt Q9QUI0)
Test: co-IP

prion protein (from UniProt P04925 23-230)
binding: binds
